In publication PMC8881833:
Results are given in words; binding and its absence hold for the method and conditions named. Binding seen in cells or lysates may run through a third protein.

Molecular target: HA-p62 mutant fragment (Δ230–440) (UniProt Q13501)
Assay: co-IP; 293 T cells transfected with HA-p62 wild type or a deletion mutant; IP with anti-HA, blots with anti-P62 and anti-P53

In the case of “p53 (detected with anti-p53 in 293 T cells transfected with HA-p62 constructs) (from UniProt P04637 1-393)”, the binding is reported as “no binding”.
